Assay results reported in publication PMC6424967.
These are yes or no findings as the source states them, for the method shown. In cells and extracts the contact can be indirect. Some entries that bind do so weakly or less than the wild type. Where a sequence is shown, tags or fusion partners need not be part of it.

Sequences of proteins named here, by UniProt entry; tags and fusion partners are left off. A change or cut given only in a name is not applied to a line headed by its entry.
UniProt P40337: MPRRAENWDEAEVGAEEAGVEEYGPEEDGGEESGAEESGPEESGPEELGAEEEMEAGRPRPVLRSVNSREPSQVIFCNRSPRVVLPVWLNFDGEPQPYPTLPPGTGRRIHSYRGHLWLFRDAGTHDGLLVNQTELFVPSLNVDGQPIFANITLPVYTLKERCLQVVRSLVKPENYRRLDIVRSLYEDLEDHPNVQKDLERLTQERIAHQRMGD

Legend:
Flag-VHL R167Q [1] = biological target: Flag-VHL R167Q (UniProt P40337); experiment: co-IP; tandem immunoprecipitation: COS-7 cells with Flag-VHL variants, V5-RSUME and HA-HIF-2α, 5 μM MG-132 for 6 h; first IP anti-FLAG, elution with 3xFLAG peptide 100 μg/ml in RIPA buffer 1 h 4 °C, second IP anti-V5; western blot (Fig. 4a)
Flag-VHL Y112H [2] = biological target: Flag-VHL Y112H (UniProt P40337); experiment: as above
Flag-VHL L188V [3] = biological target: Flag-VHL L188V (UniProt P40337); experiment: as above
Flag-VHL Y112H/K171R = Flag-VHL Y112H/K171R (UniProt P40337); experiment: co-IP; COS-7 cells co-transfected with Flag-VHL variants and V5-RSUME; lysed 48 h post transfection in modified RIPA buffer (50 mM Tris-HCl pH 7.4, 1 mM EGTA, 1% NP-40, 150 mM NaCl); immunoprecipitated with anti-FLAG, protein A-agarose, 4 °C; western blot (Fig. 3d, e)
Flag-VHL R167Q [4] = biological target: Flag-VHL R167Q (UniProt P40337); experiment: as above
Flag-VHL R167Q/K171R = Flag-VHL R167Q/K171R (UniProt P40337); experiment: as above
Flag-VHL Y112H [5] = biological target: Flag-VHL Y112H (UniProt P40337); experiment: as above
Flag-VHL L188V/K171R = Flag-VHL L188V/K171R (UniProt P40337); experiment: as above
Flag-VHL L188V [6] = biological target: Flag-VHL L188V (UniProt P40337); experiment: as above
Flag-VHL (wild type) = Flag-VHL (wild type) (UniProt P40337); experiment: co-IP; COS-7 cells with Flag-VHL variants and HA-HIF-2α, with or without V5-RSUME (and Gam-1 or Gam-1MUT control vector in Fig. 4c); extracts immunoprecipitated with anti-FLAG; western blot (Fig. 4b-d)
Flag-VHL K171R = Flag-VHL K171R (UniProt P40337); experiment: as above

Measured: binding

B1: V5-RSUME (RWD domain-containing protein SUMO Enhancer) (protein, UniProt Q9Y3V2 1-267)
chain: MAEPVQEELSVLAAIFCRPHEWEVLSRSETDGTVFRIHTKAEGFMDVDIPLELVFHLPVNYPSCLPGISINSEQLTRAQCVTVKENLLEQAESLLSEPMVHELVLWIQQNLRHILSQPETGSGSEKCTFSTSTTMDDGLWITLLHLDHMRAKTKYVKIVEKWASDLRLTGRLMFMGKIILILLQGDRNNLKEYLILQKTSKVDVDSSGKKCKEKMISVLFETKVQTEHKRFLAFEVKEYSALDELQKEFETAGLKKLFSEFVLALVK
binds: all assays above
